Test results taken from patent US6693208B2, “Compounds and compositions for delivering active agents” (Emisphere Technologies, Inc., priority 1999, dated 2004).
Where “and” joins values, the source holds several entries; their conditions need not be identical. Equal entries are not always repeated. The name of at least one read-out is uncertain.

Assay: Heparin oral/intracolonic delivery in rats, heparin activity by APTT
Format: in vivo, Sprague-Dawley rats
Details: 3 ml/kg, compound 200 mg/kg, heparin 100 mg/kg
Procedure: Oral gavage (PO) and/or intracolonic (IC) dosing solutions containing a delivery agent compound and heparin sodium USP in 25% aqueous propylene glycol were prepared. Either the sodium salt of the compound was used or the free acid was converted to the sodium salt with one equivalent of sodium hydroxide. Typically, delivery agent compound and heparin (about 166-182 IU/mg) were mixed by vortex as dry powders. This dry mixture was dissolved in 25% v/v aqueous propylene glycol, vortexed and placed in a sonicator (about 37° C.). The pH was adjusted to about 7 (6.5 to 8.5) with aqueous NaOH (2N). The dosing solution was sonicated to produce a clear solution. The final volume was adjusted to 3.0 mL. The final delivery agent compound dose, heparin dose and volume dose amounts are listed below in Table 2.
The typical dosing and sampling protocols were as follows. […]
Citrated blood samples were collected by cardiac puncture following the administration of ketamine (88 mg/kg), typically at time—0.25, 0.5, 1.0 and 1.5 hours. Heparin activity was determined by utilizing the activated partial thromboplastin time (APTT) according to the method of Henry, J. B., Clinical Diagnosis and Management by Laboratory Methods, Philadelphia, Pa., W. B. Saunders (1979). […]

For `COc1ccc(O)c(C(=O)NCCCCCCCC(=O)O)c1` [Compound 1], the “Mean Peak APTT (sec) ± SD)” value was 65.5 ± 9.1 s and 58.2 ± 55.2 s.
